Test results taken from the supplement of paper PMC10338343.
± gives the standard deviation. This is a selection; strong and weak results do not stand in their true shares. The uncertainty is large for many entries.

These sequences were tested on MIWI (PIWIL1) piRISC loaded with piRNA #2 (30 nt) (assay: pre-steady-state target cleavage rate (min^-1); MIWI and MILI are mouse PIWI proteins and EfPiwi is from a freshwater sponge; tags in brackets are library labels; higher = faster piRNA-guided slicing of the target). Conditions: guide: piRNA #2 5'p-UUAGGUAACCCAGUAGAUCCAGAGGAAUUC; auxiliary factor: 500 nM mouse GTSF1.
Procedure, shortened: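 Sequencing of uncleaved targets, normalised to depth and to weakly complementary targets, was the readout of this Cleave-'n-Seq assay. A transcribed, DNA-blocked target RNA library (0.1 nM) was mixed with 1 nM active affinity-purified piRISC carrying one synthetic guide, with or without 500 nM GTSF1 partner protein, in HEPES–potassium acetate buffer at 33 °C for 0–8 or 0–960 min. Three trials were pooled, k3 was capped at 0.0001 min^-1, and a burst-and-steady-state fit gave the pre-steady-state cleavage rate.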

| Sequence | pre-steady-state target cleavage rate |
| --- | --- |
| CUUAAGGAGACGAUCUAGUGGGUUUCCUAA | 0.000884 ± 0.0084 |
| CUUAAGGACUGGAACUACUGGGUUACCAAA | 0.00633 ± 0.013 |
| CUUAACCUCUGGAUCUAUCUGGGUUACCUAA | 0.002 ± 0.0057 |
| CUUAAGGAGACGAUCUAGUGGGUUACCUUA | 0.00116 ± 0.01 |
| GAAUUCCUCUGGAUCUGACUGGGUUACCUAA | 0.00311 ± 0.0046 |
| CUUAAGGAGACCUUCUACUGGGUAACCAAA | 0.00115 ± 0.01 |
| CUUAAGGAGACCUACUACUGGGUUACACUAA | 0.00247 ± 0.0041 |
| CUUAAGGACUGCAUCUACUGGGUUACCUAA | 0.0207 ± 0.022 |
| CUUAAGGAGUCGAUCUACUGGGUUACCUAA | 0.00342 ± 0.0049 |
| CUUAAGGAGACCUAGUAACUGGGUUACCUAA | 0.000581 ± 0.012 |
| CUUAAGGAGACGAUCAACUGGGUAACCUAA | 0.000121 ± 0.045 |
| CUUAAGGUCUGGAUCUAGUCGGUUACCUAA | 0.00286 ± 0.0067 |
| CUUAAGGAGACCAUCUUCUGGGUAACCUAA | 0.00127 ± 0.0054 |
| CUUAAGGAGAGGAUCUACUGGCUUACCUAA | 0.00487 ± 0.0067 |
| CUUAAGGAGACGAUCUACUGGGAUUCCUAA | 0.00153 ± 0.0063 |
| CUUAUCCACUGCAUCUACUGGGUUACCUAA | 0.314 ± 0.018 |
| GAAUUCCUCUGGCAUCUACUGGGUUACCUAA | 0.667 ± 0.17 |
| CUUAAGGAGACCUACGACUGGGUUACCUAA | 0.000493 ± 0.015 |
| CUUAAGGACUGGAUCUACUGGUUACCUAA | 0.000946 ± 0.028 |
| CUUAAGGAGACCUAGUACUGGGUUACGUAA | 0.000727 ± 0.0098 |
| CUUAAGGAGACCUAGUACUGGGUUACGCUAA | 0.000259 ± 0.015 |
| CUUAAGGAGAGGAACUACUGGCUUACCUAA | 0.000463 ± 0.021 |
| CUUAAGGAGACCAUCUUCUCGGUUACCUAA | 0.00116 ± 0.005 |
| CAUUUCCACUGGAUCUACUGGGUUACCUAA | 0.478 ± 0.058 |

| Sequence | pre-steady-state target cleavage rate |
| --- | --- |
| CUUAAGGAGACCUUCUACUGGGUUACUCUAA | 0.000151 ± 0.026 |
| GAAUUCCUCAGGUUCUACUGGGUUACCUAA | 0.539 ± 0.049 |
| CUUAAGGAGACCAGCUACUGGGUUACCUAA | 0.00323 ± 0.0053 |
| CUUAAGGACUGGAUCUUCUGGCUUACCUAA | 0.00508 ± 0.0097 |
| CUUAAGGAGACCUUCUACUCGGUUACCUAA | 0.00101 ± 0.0072 |
| CUUAAGGAGACGAUAUACUGGGUUACCUAA | 0.000831 ± 0.0066 |
| CUUAAGGUCUGGAUCUACUGGGUUUGGAUA [g7:g23:cont:t1A] | 0.00105 ± 0.016 |
| CUUAAGGAGUGGAUCAACUGGCUUACCUAA | 0.00464 ± 0.0047 |
| CUUAAGGACUGGAGUCUACUGGGUUACCUAA | 0.0123 ± 0.019 |
| CUUAAGGAGACCUUCUACUGGGUACCUAA | 0.00169 ± 0.0048 |
| CUUAAGGACUGCAUCUACUGGGUUACCUUA | 0.00303 ± 0.013 |
| CUUAAGGAGUGGAUCUACUGGGAAUCCUAA | 0.00149 ± 0.0081 |
| CUUAAGGACUGGUUCUACUCGGUUACCUAA | 0.0093 ± 0.014 |
| CUUAAGGAGACCUUCUACUGUGGUUACCUAA | 0.00218 ± 0.0036 |
| CUUUUCCUCUGCAUCUACUGGGAUACCUAA | 0.128 ± 0.018 |
| CUUAAGGUGACGAUCUACUGGGUUACCUAA | 0.0052 ± 0.0036 |
| CUUAAGGAGACCUUCUACUGGGCUUACCUAA | 0.000946 ± 0.008 |
| CUUAAGGAGACCAUCUACUGGGUUAGCAAA | 0.000432 ± 0.013 |
| CUUAAGGAGACCUAGAUGAGGAGUUACCUAA | 0.0027 ± 0.0049 |
| GAAUUCCUCUGGAUCUACUGGGAUACCAAA | 0.192 ± 0.06 |
| CUUAAGGAGACCUAGAUGACGGUUACGAUA | 0.00019 ± 0.033 |
| CUUAAGGAGAGGAUCUAGUGCGUUACCUAA | 0.00246 ± 0.0038 |
| CUUAAGGAGAGGAUCUACUGGUGUUACCUAA | 0.000147 ± 0.039 |
| CUUAAGGAGACGAUCUACUGGUUUACCUAA | 0.00268 ± 0.0034 |

Part of the list above, with tabs:
Sequence	pre-steady-state target cleavage rate
CUUAAGGAGACCUUCUACUGGGUUACUCUAA	0.000151 ± 0.026
GAAUUCCUCAGGUUCUACUGGGUUACCUAA	0.539 ± 0.049
CUUAAGGAGACCAGCUACUGGGUUACCUAA	0.00323 ± 0.0053
CUUAAGGACUGGAUCUUCUGGCUUACCUAA	0.00508 ± 0.0097
CUUAAGGAGACGAUAUACUGGGUUACCUAA	0.000831 ± 0.0066
CUUAAGGAGUGGAUCAACUGGCUUACCUAA	0.00464 ± 0.0047
CUUAAGGACUGGAGUCUACUGGGUUACCUAA	0.0123 ± 0.019
CUUAAGGAGACCUUCUACUGGGUACCUAA	0.00169 ± 0.0048
CUUAAGGACUGCAUCUACUGGGUUACCUUA	0.00303 ± 0.013
CUUAAGGAGUGGAUCUACUGGGAAUCCUAA	0.00149 ± 0.0081
CUUAAGGUGACGAUCUACUGGGUUACCUAA	0.0052 ± 0.0036
CUUAAGGAGACCUUCUACUGGGCUUACCUAA	0.000946 ± 0.008

Further records follow:

| Sequence | pre-steady-state target cleavage rate |
| --- | --- |
| CUUAAGGAGACCUAGAACUGGGUUAUCUAA | 0.000224 ± 0.023 |
| CUUAAGGAGACCUACUACUGCGUUACGUAA | 0.00147 ± 0.0037 |
| GAAUUCCUCUGGAUCUACUGGCAAUGGAUA [g10:g30:cont:t1A] | 0.000234 ± 0.022 |
| CUUAAGGAGACCUUCUACUGGGUUCCCUAA | 0.000938 ± 0.011 |
| CUUAAGGACUGGAUCUACUCCGUUACCUAA | 0.00337 ± 0.014 |
| CUUAAGGAGAGGAUCUACUGGUUACCUAA | 0.00119 ± 0.01 |
| CUUAAGGAGACCAUUUACUGGGUUACCUAA | 0.0017 ± 0.0071 |
| CUUAAGGAGACCAUCUACUGGGUUACCCUAA | 0.0016 ± 0.0056 |
| CUUAAGGAGACCUAGUACUGGAGUUACCUAA | 0.00213 ± 0.0049 |
| CUUAAGGAGAGGAUCUAACUGGGUUACCUAA | 0.000155 ± 0.039 |
| CUUAAGGACUGGAUCAUACUGGGUUACCUAA | 0.000587 ± 0.031 |
| CUUAAGGAGUGGAUCUACUGGGUUACCAUA | 0.0428 ± 0.015 |
| CUUAAGGAGAGCAUCUACUGGGUAACCUAA | 0.000875 ± 0.007 |
| CUUAAGGAGUGGAACUACUCGGUUACCUAA | 0.00272 ± 0.011 |
| CUUAAGGAGACCUACUACUCGGGUUACCUAA | 0.000473 ± 0.011 |
| CUUAAGGAGACCUUCUACGGGGUUACCUAA | 0.00164 ± 0.0068 |
| CUUAAGGAGACCAUUCUACUGGGUUACCUAA | 0.00407 ± 0.0043 |
| CUUAAGGAGAGGAUCAACUGGGAUACCUAA | 0.000119 ± 0.051 |
| CAAUUCCUCUGGUUCUACUGGGAUACCUAA | 0.145 ± 0.038 |
| CUUAAGGAGACCUUCUCACUGGGUUACCUAA | 0.00181 ± 0.0039 |
| CUUAAGGAGACCUACUACUGCCUUACCUAA | 0.000973 ± 0.009 |
| CUUAAGGAGACGAUCUACUGGGUAACCUUA | 0.00026 ± 0.012 |
| CUUAAGGAGACGAUCUACUCGGUUACCAAA | 0.00029 ± 0.028 |
